From paper PMC2993708

The chains behind the UniProt entries cited, without tags or fusion partners.
UniProt Q8K202: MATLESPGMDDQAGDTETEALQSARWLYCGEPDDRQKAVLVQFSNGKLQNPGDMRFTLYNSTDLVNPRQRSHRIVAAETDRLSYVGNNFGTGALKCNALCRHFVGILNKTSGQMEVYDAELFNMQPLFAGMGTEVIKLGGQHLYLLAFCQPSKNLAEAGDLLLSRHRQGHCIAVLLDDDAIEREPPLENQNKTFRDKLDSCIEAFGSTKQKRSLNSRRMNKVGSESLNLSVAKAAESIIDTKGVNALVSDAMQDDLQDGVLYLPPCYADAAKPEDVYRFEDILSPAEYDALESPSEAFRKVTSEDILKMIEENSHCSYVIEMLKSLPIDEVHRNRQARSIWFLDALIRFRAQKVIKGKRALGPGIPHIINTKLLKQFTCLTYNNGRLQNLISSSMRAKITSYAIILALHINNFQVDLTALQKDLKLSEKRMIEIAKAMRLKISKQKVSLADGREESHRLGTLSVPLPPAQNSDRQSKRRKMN
UniProt O35134: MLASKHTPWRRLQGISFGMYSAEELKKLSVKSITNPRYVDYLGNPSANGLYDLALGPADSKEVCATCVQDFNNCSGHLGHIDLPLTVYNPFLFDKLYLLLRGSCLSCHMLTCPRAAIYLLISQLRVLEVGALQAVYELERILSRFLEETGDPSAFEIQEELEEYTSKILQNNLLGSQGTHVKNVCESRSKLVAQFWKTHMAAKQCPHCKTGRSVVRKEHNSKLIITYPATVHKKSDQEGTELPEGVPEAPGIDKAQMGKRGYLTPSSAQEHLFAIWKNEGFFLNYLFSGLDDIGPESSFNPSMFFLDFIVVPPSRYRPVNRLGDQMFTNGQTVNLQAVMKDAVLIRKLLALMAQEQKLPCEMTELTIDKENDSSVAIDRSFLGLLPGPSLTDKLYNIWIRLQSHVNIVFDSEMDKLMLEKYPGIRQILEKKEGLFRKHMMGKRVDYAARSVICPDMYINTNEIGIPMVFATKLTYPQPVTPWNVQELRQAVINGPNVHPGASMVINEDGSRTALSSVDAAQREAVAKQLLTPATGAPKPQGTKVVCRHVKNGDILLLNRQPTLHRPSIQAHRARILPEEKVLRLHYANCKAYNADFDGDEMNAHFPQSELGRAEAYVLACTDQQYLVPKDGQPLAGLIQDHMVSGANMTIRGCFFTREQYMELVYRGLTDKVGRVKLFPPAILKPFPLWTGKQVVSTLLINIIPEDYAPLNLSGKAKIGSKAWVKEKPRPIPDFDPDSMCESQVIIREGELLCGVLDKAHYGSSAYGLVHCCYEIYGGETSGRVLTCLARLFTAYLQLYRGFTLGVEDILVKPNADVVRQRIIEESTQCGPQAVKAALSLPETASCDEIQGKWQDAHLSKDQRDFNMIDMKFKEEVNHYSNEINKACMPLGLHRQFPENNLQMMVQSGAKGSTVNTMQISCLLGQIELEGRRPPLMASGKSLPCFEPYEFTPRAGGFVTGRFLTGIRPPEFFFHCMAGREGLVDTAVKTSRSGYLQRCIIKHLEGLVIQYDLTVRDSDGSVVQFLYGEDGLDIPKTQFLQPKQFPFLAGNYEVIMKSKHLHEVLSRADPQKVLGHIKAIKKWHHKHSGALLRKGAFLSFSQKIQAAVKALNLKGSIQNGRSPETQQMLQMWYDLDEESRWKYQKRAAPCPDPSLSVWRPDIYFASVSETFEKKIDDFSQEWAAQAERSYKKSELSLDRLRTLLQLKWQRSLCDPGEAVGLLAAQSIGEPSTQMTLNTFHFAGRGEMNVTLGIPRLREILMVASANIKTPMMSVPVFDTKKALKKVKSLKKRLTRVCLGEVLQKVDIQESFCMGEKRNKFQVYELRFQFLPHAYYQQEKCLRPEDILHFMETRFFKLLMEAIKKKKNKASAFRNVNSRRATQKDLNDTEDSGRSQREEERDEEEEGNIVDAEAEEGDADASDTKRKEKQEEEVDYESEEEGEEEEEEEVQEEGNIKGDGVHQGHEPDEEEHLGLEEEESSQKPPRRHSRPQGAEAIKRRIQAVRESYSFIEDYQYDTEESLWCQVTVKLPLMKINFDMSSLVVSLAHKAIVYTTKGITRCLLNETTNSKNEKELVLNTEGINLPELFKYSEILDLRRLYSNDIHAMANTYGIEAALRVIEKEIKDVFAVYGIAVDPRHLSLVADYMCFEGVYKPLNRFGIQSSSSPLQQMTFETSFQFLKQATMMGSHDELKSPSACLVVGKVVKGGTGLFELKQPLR

Biological target: T1, biotin tagged CTCF (CTCF-bio) (mouse) (UniProt Q61164)
T1 sequence (chain, biotinylated lysine in the C-terminal tag (by BirA)): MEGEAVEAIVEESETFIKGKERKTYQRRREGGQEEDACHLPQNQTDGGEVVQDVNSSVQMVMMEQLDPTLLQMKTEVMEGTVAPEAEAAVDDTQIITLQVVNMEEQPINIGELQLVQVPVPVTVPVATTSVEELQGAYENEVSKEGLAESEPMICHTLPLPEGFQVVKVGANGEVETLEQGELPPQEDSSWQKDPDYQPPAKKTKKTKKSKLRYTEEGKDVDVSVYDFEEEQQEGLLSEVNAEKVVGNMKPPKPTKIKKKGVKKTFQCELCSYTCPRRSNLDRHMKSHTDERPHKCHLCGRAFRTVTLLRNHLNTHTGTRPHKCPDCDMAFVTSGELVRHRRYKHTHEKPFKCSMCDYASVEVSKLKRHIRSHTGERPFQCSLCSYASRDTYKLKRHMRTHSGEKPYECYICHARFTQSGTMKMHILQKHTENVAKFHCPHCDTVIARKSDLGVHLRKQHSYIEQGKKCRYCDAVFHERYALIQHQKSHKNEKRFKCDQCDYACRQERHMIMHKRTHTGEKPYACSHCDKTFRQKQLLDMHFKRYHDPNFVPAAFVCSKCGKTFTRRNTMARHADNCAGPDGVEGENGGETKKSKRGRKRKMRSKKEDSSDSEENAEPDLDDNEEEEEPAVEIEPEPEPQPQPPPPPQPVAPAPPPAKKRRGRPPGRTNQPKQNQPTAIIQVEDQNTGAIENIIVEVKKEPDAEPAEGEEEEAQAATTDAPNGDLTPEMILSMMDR
Assay: affinity purification with mass spectrometry; CTCF-bio purified from ES cell nuclear extracts under mild conditions with streptavidin-coupled magnetic beads; Mascot score cut-off 60

Substance	binding
PAF53 (from UniProt Q8K202 1-482)	binds
large subunit of RNA polymerase I (RPA194) (from UniProt O35134 1-1717)	binds

Results are given in words; binding and its absence hold for the method and conditions named. In cells and extracts the contact can be indirect. These calls come from enrichment with a bait or labelling near it, and not all partners need be listed. Tags and fused reporters may be left off the sequences shown.
